Experimental data taken from patent US12291501B2 (University of Florida Research Foundation, Inc., priority 2021, dated 2025).
Some results were stated once for a whole list of compounds, not compound by compound.

Protein sequences, listed by entry. Tags and fused reporters are not part of them. Residues count along the entry.
UniProt P36544, 23-502: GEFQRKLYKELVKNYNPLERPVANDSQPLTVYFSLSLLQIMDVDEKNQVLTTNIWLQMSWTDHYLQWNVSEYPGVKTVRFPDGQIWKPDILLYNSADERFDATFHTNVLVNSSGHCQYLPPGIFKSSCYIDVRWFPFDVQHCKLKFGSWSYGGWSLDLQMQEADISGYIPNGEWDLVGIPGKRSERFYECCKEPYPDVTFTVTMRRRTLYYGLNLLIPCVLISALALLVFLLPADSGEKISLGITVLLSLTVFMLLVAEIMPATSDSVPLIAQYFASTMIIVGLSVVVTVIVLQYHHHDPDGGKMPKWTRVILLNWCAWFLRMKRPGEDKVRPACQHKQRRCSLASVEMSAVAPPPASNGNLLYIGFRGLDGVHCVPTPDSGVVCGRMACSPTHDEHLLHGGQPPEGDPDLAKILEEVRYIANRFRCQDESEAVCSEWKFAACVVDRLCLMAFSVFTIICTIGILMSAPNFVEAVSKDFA

Target: T1, α7 nAChR (Homo sapiens, UniProt P36544)
T1 construct: expressed in transfected cells; host or cells: Xenopus laevis oocytes, injected with in vitro transcribed RNA
Test: Two-electrode voltage-clamp, agonist concentration-response, α7 nAChR in Xenopus oocytes
Type: cell-based
Conditions: relative to ACh (Imax = 1); net charge; ± standard error of fit
Text: Electrophysiology: Xenopus oocytes were microinjected with RNAs to produce functional nAChR which were characterized by two-electrode voltage-clamp measurements. FIGS. 5A-7D present concentration-response curves for the new compounds evaluated with α7, α9, and α9α10 receptors. Table 1 presents the values for Imax and EC50 with these receptors and Table 2 summarizes inhibition data for the compounds with heteromeric nAChR.
Molecular Biology: Plasmid DNAs encoding the human α7 and heteromeric nAChR were obtained from Jon Lindstrom (University of Pennsylvania, Philadelphia, PA). Mouse muscle subunit clones were obtained from Jim Boulter (Salk Institute, La Jolla CA) and Paul Gardner (Dartmouth, Hanover NH). […] Plasmid DNA encoding the human α10 nAChR was obtained from J. Michael McIntosh. […]
The responses were calculated as both peak-current amplitudes and net charge. Data were collected at 50 Hz, filtered at 20 Hz, and analyzed by Clampfit (Molecular Devices) and Excel (Microsoft, Redmond, WA, United States). Data are expressed as means±SEM from at least five oocytes for each experiment and plotted with Kaleidagraph 4.5.2 (Abelbeck Software, Reading, PA, United States). […] The errors in the tables are the calculated standard errors of the fit parameters based on the goodness of fit.

| Compound | α7 Imax |
| --- | --- |
| CC[N+]1(C)CCN(c2ccc(C(=O)Nc3cccc(C)n3)cc2)CC1.[I-] [Compound 3f, 1-ethyl-1-methyl-4-(4-((6-methylpyridin-2-yl)carbamoyl)phenyl)piperazin-1-ium iodide] | 0.40-0.57 |
| Cc1cccc(NC(=O)c2ccc(N3CC[N+](C)(C)CC3)cc2)n1.[I-] [Compound 3e, 1,1-dimethyl-4-(4-((6-methylpyridin-2-yl)carbamoyl)phenyl)piperazin-1-ium iodide] | 0.40-0.57 |
